Experimental data taken from article PMC12003009.

How the values were obtained:
[1] = target: Nrf2 (nuclear factor erythroid 2 like 2), overexpressed from plasmid; experiment: co-IP; Huh7 cells and 293T cells transfected with Flag-Bcl3 or Nrf2 plasmid, lysed in NP40 buffer; Flag M2 beads or antibody with protein A/G Sepharose beads, 2 hours at room temperature or overnight at 4 °C; 5 washes with NP40 buffer; Western blotting
[2] = target: Flag-Bcl3 (B cell leukemia/lymphoma 3); experiment: as above

Row | binding [1] | binding [2] | Binder
1 | binds | – | endogenous Bcl3 (B cell leukemia/lymphoma 3) of Huh7 / HEK293T cells (protein, UniProt P20749 1-454) MPRCPAGAMDEGPVDLRTRPKAAGLPGAALPLRKRPLRAPSPEPAAPRGAAGLVVPLDPLRGGCDLPAVPGPPHGLARPEALYYPGALLPLYPTRAMGSPFPLVNLPTPLYPMMCPMEHPLSADIAMATRADEDGDTPLHIAVVQGNLPAVHRLVNLFQQGGRELDIYNNLRQTPLHLAVITTLPSVVRLLVTAGASPMALDRHGQTAAHLACEHRSPTCLRALLDSAAPGTLDLEARNYDGLTALHVAVNTECQETVQLLLERGADIDAVDIKSGRSPLIHAVENNSLSMVQLLLQHGANVNAQMYSGSSALHSASGRGLLPLVRTLVRSGADSSLKNCHNDTPLMVARSRRVIDILRGKATRPASTSQPDPSPDRSANTSPESSSRLSSNGLLSASPSSSPSQSPPRDPPGFPMAPPNFFLPSPSPPAFLPFAGVLRGPGRPVPPSPAPGGS
2 | – | binds | endogenous Nrf2 (nuclear factor erythroid 2 like 2) of Huh7 / HEK293T cells (protein, UniProt Q16236 1-605) MMDLELPPPGLPSQQDMDLIDILWRQDIDLGVSREVFDFSQRRKEYELEKQKKLEKERQEQLQKEQEKAFFAQLQLDEETGEFLPIQPAQHIQSETSGSANYSQVAHIPKSDALYFDDCMQLLAQTFPFVDDNEVSSATFQSLVPDIPGHIESPVFIATNQAQSPETSVAQVAPVDLDGMQQDIEQVWEELLSIPELQCLNIENDKLVETTMVPSPEAKLTEVDNYHFYSSIPSMEKEVGNCSPHFLNAFEDSFSSILSTEDPNQLTVNSLNSDATVNTDFGDEFYSAFIAEPSISNSMPSPATLSHSLSELLNGPIDVSDLSLCKAFNQNHPESTAEFNDSDSGISLNTSPSVASPEHSVESSSYGDTLLGLSDSEVEELDSAPGSVKQNGPKTPVHSSGDMVQPLSPSQGQSTHVHDAQCENTPEKELPVSPGHRKTPFTKDKHSSRLEAHLTRDELRAKALHIPFPVEKIINLPVVDFNEMMSKEQFNEAQLALIRDIRRRGKNKVAAQNCRKRKLENIVELEQDLDHLKDEKEKLLKEKGENDKSLHLLKKQLSTLYLEVFSMLRDEDGKPYSPSEYSLQQTRDGNVFLVPKSKKPDVKKN

These are yes or no findings as the source states them, for the method shown. Binding seen in cells or lysates may run through a third protein. Binding can be weak; no strength is given.
